Laboratory results: PubChem BioAssay AID1259254 (NCATS, 2017)
In all, the deposit lists about 59,000 reagents; below is a part drawn at random. About 1,550 of them (2.6%) count as active. 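G2 share is only a proxy for re-replication; each gene was hit by three separate siRNAs, and active genes were retested.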 Further read-outs or replicates are left out here. Not stated in the record: the amount of reagent.

- Aim: 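Genome-wide screen for genes that prevent DNA re-replication in cancer cells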 (primary screen)
- System: human HCT116 colorectal cancer cells
- Reagents: single siRNA against human genes
- Timing: 3 days
- Measured: 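Nuclei stained with Hoechst and imaged; cell-cycle phase assigned by DNA content; G2 share scaled per plate, non-targeting siRNA 0%, GMNN siRNA 100%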
- Direction: G2 robust z-score: higher = more G2 cells, more excess DNA replication
- Hit rule: 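An siRNA counts as active if its G2 robust z-score lies at least 5 MADs above the screen median; here such calls match roughly 38% of GMNN control or more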

For CSPP1 [SID160749600], what does the deposit list?
G2 robust z-score: 0.0724; activity call: inactive

With CSPP1 [SID160749601], what was measured?
G2 robust z-score: -0.128; activity call: inactive

How did the screen score CSPP1 [SID160749602]?
G2 robust z-score: -0.0235; activity call: inactive

For FAN1 [SID160733269], how do the results read?
G2 robust z-score: 0.452; activity call: inactive

What is on record for FAN1 [SID160733280]?
G2 robust z-score: -0.779; activity call: inactive

With FAN1 [SID160733290], what was measured?
G2 robust z-score: 0.413; activity call: inactive

With DEPDC1B [SID160744365], how do the results read?
G2 robust z-score: -0.106; activity call: inactive

For DEPDC1B [SID160744366], how do the results read?
G2 robust z-score: -0.7; activity call: inactive

With DEPDC1B [SID160744367], how do the results read?
G2 robust z-score: 0.265; activity call: inactive

How did the screen score MUC2 [SID160777565]?
G2 robust z-score: 0.277; activity call: inactive

For MUC2 [SID160777566], what does the deposit list?
G2 robust z-score: 1.26; activity call: inactive

How did the screen score MUC2 [SID160777568]?
G2 robust z-score: 1.17; activity call: inactive

What did the screen give for CADM3 [SID160731619]?
G2 robust z-score: 1.9; activity call: inactive

What is on record for CADM3 [SID160746773]?
G2 robust z-score: 0.242; activity call: inactive

What is on record for CADM3 [SID160746774]?
G2 robust z-score: 0.388; activity call: inactive

For ZNF629 [SID160736106], what does the deposit list?
G2 robust z-score: -0.889; activity call: inactive

What did the screen give for ZNF629 [SID160736107]?
G2 robust z-score: 0.868; activity call: inactive

For ZNF629 [SID160736108], how do the results read?
G2 robust z-score: -0.322; activity call: inactive

3 consecutive records already listed:
MUC2 [SID160777565]: G2 robust z-score = 0.277; activity call = inactive
MUC2 [SID160777566]: G2 robust z-score = 1.26; activity call = inactive
MUC2 [SID160777568]: G2 robust z-score = 1.17; activity call = inactive
